Measurements: patent publication US7812042B2, “Pharmaceutical compositions and therapeutic applications for the use of a novel vitamin B12 derivative, N-acetyl-L-cysteinylcobalamin” (priority 2006, dated 2010)
Where “and” joins values, the source holds several entries; their conditions need not be identical. Equal values may be shown once. The source gives many values for each of these; only a part stands here.

Legend:
[1] = test system: SK-HEP-1 cells; test: Protection of endothelial cells from H2O2-induced cell death (MTS assay); type: cell-based, Human; details: single replicates n = 6
Method: The effect of increasing concentrations of NACCbl and GSCbl to protect endothelial cells from the effect of H2O2 was assessed. […] Cell viability was determined by MTS® assay. […] Cell viability was determined by MTS® assay. […] Cell viability was determined by MTS® assay.

[2] = test system: SK-HEP-1 cells; test: NACCbl protection from homocysteine with Hsp32/Hsp70 inhibited by Sn(IX) protoporphyrin, quercitin or siRNA (MTS assay); type: cell-based, Human; details: NACCbl 30 μM two hours with/without siRNA for Hsp32, Hsp70
[3] = cobalamin 30 μM two hours, then H2O2 0 μM
[4] = cobalamin 30 μM two hours, then H2O2 0.781 μM two hours
[5] = cobalamin 30 μM two hours, then H2O2 1.56 μM two hours
[6] = cobalamin 30 μM two hours, then H2O2 3.125 μM two hours
[7] = cobalamin 30 μM two hours, then H2O2 6.25 μM two hours
[8] = cobalamin 30 μM two hours, then H2O2 12.5 μM two hours
[9] = cobalamin 30 μM two hours, then H2O2 25 μM two hours
[10] = cobalamin 30 μM two hours, then H2O2 50 μM two hours
[11] = cobalamin 30 μM two hours, then H2O2 100 μM two hours
[12] = cobalamin 30 μM two hours, then H2O2 200 μM two hours
[13] = cobalamin concentration 1.562 (μM) 2 hours, then 25 μM H2O2 24 hours
[14] = cobalamin concentration 3.125 (μM) 2 hours, then 25 μM H2O2 24 hours
[15] = cobalamin concentration 6.25 (μM) 2 hours, then 25 μM H2O2 24 hours
[16] = cobalamin concentration 12.5 (μM) 2 hours, then 25 μM H2O2 24 hours
[17] = cobalamin concentration 25 (μM) 2 hours, then 25 μM H2O2 24 hours
[18] = cobalamin concentration 50 (μM) 2 hours, then 25 μM H2O2 24 hours
[19] = cobalamin concentration 100 (μM) 2 hours, then 25 μM H2O2 24 hours
[20] = cobalamin concentration 200 (μM) 2 hours, then 25 μM H2O2 24 hours

Structure (SMILES)	cell viability (MTS) [1, 3]	cell viability (MTS) [1, 4]	cell viability (MTS) [1, 5]	cell viability (MTS) [1, 6]	cell viability (MTS) [1, 7]	cell viability (MTS) [1, 8]	cell viability (MTS) [1, 9]	cell viability (MTS) [1, 10]	cell viability (MTS) [1, 11]	cell viability (MTS) [1, 12]	cell viability (MTS) [1, 13]	cell viability (MTS) [1, 14]	cell viability (MTS) [1, 15]	cell viability (MTS) [1, 16]	cell viability (MTS) [1, 17]	cell viability (MTS) [1, 18]	cell viability (MTS) [1, 19]	cell viability (MTS) [1, 20]	also measured
C/C1=C2N=C(/C=C3N=C(/C(C)=C4\[N-]C(C(CC(N)=O)C4(C)CCC(=O)NCC(C)OP(=O)([O-])OC4C(CO)OC(n5cnc6cc(C)c(C)cc65)C4O)C4(C)N=C1C(CCC(N)=O)C4(C)CC(N)=O)C(CCC(N)=O)C\3(C)C)C(CCC(N)=O)C/2(C)CC(N)=O.NC(CCC(=O)NC(C[S-])C(=O)NCC(=O)O)C(=O)O.[Co+3] (stereo not drawn) [GSCbl, Glutathionylcobalamin, reference compound]	99.24 and 102.2264 and 105.5898 and 103.6002 and 104.0265 and 104.5476	96.12 and 98.39 and 97.3946 and 98.0578 and 96.02 and 95.31	93.56 and 90.81 (2×) and 92.33 and 88.25 and 91.8522	40.31 and 91.33 and 87.3046 and 82.33 and 79.77 and 77.59	36.52 and 39.7442 and 34.49 and 34.72 and 34.86 and 36.1	29.7963 and 32.02 and 36.1 and 32.4 and 29.99 and 33.92	23.54 and 26.53 and 22.93 and 24.44 and 22.03 and 20.42	15.02 and 20.8432 and 18.95 and 13.12 and 15.6324 and 17.62	10.8 and 12.36 and 11.5585 and 9.995 and 6.679 and 8.527	1.326 and 7.153 and 3.6 and 1.942 and 5.921 and 0.7579	6.061 and 1.12 and 2.635	20.88 and 30.9 and 21.34 and 26.8116 and 19.5 and 29.25	48.68 and 56.26 and 45.98 and 43.35 and 42.09 and 41.96	44.27 and 54.35 and 50.53 and 47.04 and 44.14 and 42.09	41.24 and 45.5863 and 42.23 and 45.26 and 41.7 and 44.99	42.69 and 45.72 and 48.16 and 46.9 and 46.77 and 51.84	64.62 (2×) and 77.87 and 71.61 and 72.6 and 76.5481	94.07 and 100.0659 and 102.8327 and 93.87 and 105.5995 and 94.73	
CC(=O)NC(C[S-])C(=O)O.CC1=C2N=C(C=C3N=C(C(C)=C4[N-]C(C(CC(N)=O)C4(C)CCC(=O)NCC(C)OP(=O)([O-])OC4C(CO)OC(n5cnc6cc(C)c(C)cc65)C4O)C4(C)N=C1C(CCC(N)=O)C4(C)CC(N)=O)C(CCC(N)=O)C3(C)C)C(CCC(N)=O)C2(C)CC(N)=O.[Co+3] [NACCbl, N-acetyl-L-cysteinylcobalamin]	102.9844 and 100.8053 and 103.2212 and 107.9583 and 101.8948 and 98.44	93.46 and 102.7949 and 99.24 and 101.3738 and 103.2686 and 95.45	98.53 and 91.38 and 98.72 and 100.1421 and 89.77 and 96.12	88.2 and 93.18 and 92.89 and 99.76 and 92.42 and 91.8	88.2 and 87.59 and 82.14 and 81.57 and 78.07 and 77.12	77.17 and 76.98 and 76.6 and 67.12 and 77.6883 and 74.14	67.12 and 66.75 and 61.87 and 56.18 and 55.3766 and 55.95	50.21 and 48.27 and 44.955 and 45.71 and 48.18 and 44.58	29.99 and 23.97 and 19.56 and 18.901 and 17.53 and 20.89	5.2108 and 7.153 and 1.99 and 0.6632	4.677 and 1.845 and 5.27 and 1.647 and 4.348 and 5.599	26.8116 and 19.5 and 35.84 and 30.5 and 35.24 and 33	42.8195 and 42.09 and 39.39 and 30.9 and 28 and 38.4058	45.26 and 41.7 and 44.99 and 45.5863 and 42.23 and 47.36	46.9 and 46.77 and 45.26 and 42.69 and 45.72 and 48.16	56.65 and 49.93 (2×) and 60.2108 and 63.24 and 57.11	61.5942 and 56.59 and 70.22 and 74.37 and 64.23 and 61.79	100.7246 and 99.7365 and 101.8445 and 107.3123 and 92.69 and 97.56	Mean cell viability (MTS, FIG. 12), normalized to 0 Hcy = 100 ([2]; Hcy 0): 100; Mean cell viability (MTS, FIG. 12), normalized to 0 Hcy = 100 ([2]; Hcy 1.78 (μM) two hours, where named): 97.05; Mean cell viability (MTS, FIG. 12), normalized to 0 Hcy = 100 ([2]; Hcy 3.125 (μM) two hours, where named): 91.34; Mean cell viability (MTS, FIG. 12), normalized to 0 Hcy = 100 ([2]; Hcy 6.25 (μM) two hours, where named): 89.85; Mean cell viability (MTS, FIG. 12), normalized to 0 Hcy = 100 ([2]; Hcy 12.5 (μM) two hours, where named): 82.84; Mean cell viability (MTS, FIG. 12), normalized to 0 Hcy = 100 ([2]; Hcy 25 (μM) two hours, where named): 73.76; Mean cell viability (MTS, FIG. 12), normalized to 0 Hcy = 100 ([2]; Hcy 50 (μM) two hours, where named): 59.07; Mean cell viability (MTS, FIG. 12), normalized to 0 Hcy = 100 ([2]; Hcy 100 (μM) two hours, where named): 55.17; Mean cell viability (MTS, FIG. 12), normalized to 0 Hcy = 100 ([2]; Hcy 200 (μM) two hours, where named): 43.9595
